Results published in PubChem BioAssay AID2685 (National Center for Advancing Translational Sciences (NCATS), 2010).
The campaign covered roughly 320,000 compounds. About 2,100 (0.66%) were called active. This list was built around the results that the source calls inconclusive (neither active nor inactive); the mix of calls is not that of the screen. Calls follow the shape of the dose curve; as a rule, active = well fitted inhibition curve with a large enough effect in the signal ratio, with a control signal flat (not every such curve was filed as active); inconclusive = small, poorly fitted or top-dose-only effect, or effect the other way, or a change in a side signal; inactive = flat fitted curve, though single readings scatter; the % refers to the signal ratio. Where the call is inconclusive, the potency comes from a doubtful curve fit.

test: qHTS Assay for Lipid Storage Modulators in Drosophila S3 Cells; details: BODIPY lipid droplet fluorescence, 18-24 h, cells fed with added oleic acid; lipid storage change, negative = inhibition: at 46.1 µM (top of the series) unless noted
Method in brief: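 Drosophila S3 cells got compounds at several concentrations plus oleic acid (400 uM solution). Laser-scanning cytometry with 488 nm excitation read lipid droplets at 500-530 nm and cells at 575-640 nm. Percent activity was relative to 20 uM Triacsin C.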
% is scaled to controls: 0 for no effect and ±100 for the full control effect; potency is read from the fitted curve at half-maximal effect.

| Structure (SMILES) | lipid storage change, negative = inhibition | Potency |
| --- | --- | --- |
| CS(=O)(=O)c1ccccc1-c1nnc(NC(=O)COc2ccc(Cl)cc2)o1 | inconclusive |  |
| O=C(NCCc1ccccc1)C(=O)NCC(c1ccco1)N1CCOCC1 (centres undefined) | inconclusive: -14.2% |  |
| COc1cc(/C=C(\C#N)C(=O)NCC2CCCO2)ccc1OC(=O)c1ccco1 (centres undefined) |  | inconclusive: 11.6 µM [activator, single point] |
| C(=N\N(Cc1ccccc1)c1ccccc1)/c1ccco1 | inconclusive: -30.5% |  |
| Cc1ccc(N2CC(NS(=O)(=O)c3cccs3)CC2=O)cc1C (centres undefined) | inconclusive: 10.9% |  |
| CC(C)Cn1c(N)c(C(=O)COC(=O)Cc2cccc(C(F)(F)F)c2)c(=O)n(C)c1=O | inconclusive: -131% |  |
| COc1ccc(-n2nnnc2SCC(=O)Nc2ccccc2)cc1 | inconclusive: -17.1% |  |
| C=CCC1(CC=C)CCCN1C(=O)c1cc(COc2cncc(Cl)c2)on1 | inconclusive: -43.1% |  |
| O=C(OCCN1CCN(C2=NS(=O)(=O)c3ccccc32)CC1)c1ccccc1F |  | inconclusive: 23.1 µM [falling, single point] |
| CC(C)(C)NC(=O)C(c1ccc(O)cc1)N(C(=O)CCC(=O)Nc1nccs1)c1ccccc1F (centres undefined) | inconclusive: 7.09% |  |
| O=C(COC(=O)Cc1ccsc1)NC1CCCCCC1 |  | inconclusive: 29.1 µM [falling, single point] |
| COc1ccc(N2C(=O)CCC(C(=O)N3CCCCCC3)C2c2ccc(OC)c(OC)c2)cc1 (centres undefined) | inconclusive: 18% |  |
| CCOC(=O)c1ccc(NC2c3ccccc3C(=O)N2c2cccnc2)cc1 (centres undefined) | inconclusive: 27.6% |  |
| Cc1ccc2cc(C)c(SCC(=O)NCC3CCCO3)nc2c1 (centres undefined) | inconclusive: -7.05% |  |
| COC(=O)[C@H](Cc1ccccc1)NC(=O)[C@@]1(C)C[C@@H]1[C@@H](NC(=O)OCc1ccccc1)c1ccccc1 |  | inconclusive: 29.1 µM [falling, single point] |
| CCOC(=O)c1cccnc1SCc1cc(=O)n2ccccc2n1 | inconclusive: 28.7% |  |
| COc1ccccc1CNC(=O)c1oc2ccc(S(=O)(=O)N3CCOCC3)cc2c1C |  | active: 29.1 µM |
| CC(=O)N1CCc2c(sc(NC(=O)Cc3ccccc3)c2C#N)C1 |  | inconclusive: 9.2 µM [falling, partial curve, poor fit] |
| Cc1ccc(CNC(=O)CSc2nc(C)cs2)cc1 | inconclusive: 9.24% |  |
| Cc1cnc(C(=O)OCc2ccc(COC(=O)c3cnc(C)cn3)cc2)cn1 | inconclusive: 0.382% |  |
| Cc1c(NC2=CC(=O)CC(C)(C)C2)ccc([N+](=O)[O-])c1C | inconclusive: 28.8% |  |
| C=CCCC(=O)NC1CC(C)(C)Cc2c1cnn2-c1ccc(OC)cc1 (centres undefined) |  | inconclusive: 6.51 µM [falling, single point] |
| CNC(=O)CN(Cc1ccccc1)S(=O)(=O)c1ccc(Cl)cc1 |  | inconclusive: 0.58 µM [activator, single point] |
| CCn1c(NC(=O)c2ccccc2)c(-c2cccs2)c(=O)c2ccccc21 |  | inconclusive: 29.1 µM [rising, single point] |
| CCCCC(=O)Nc1cccc(NC(=O)c2ccccc2Br)c1 |  | inconclusive: 11.6 µM [rising, partial curve] |

| Structure (SMILES) | lipid storage change, negative = inhibition | Potency |
| --- | --- | --- |
| CCN(CC)c1ccc2c(C)c(CN3CCOCC3)c(=O)oc2c1 |  | inconclusive: 2.06 µM [activator, partial curve] |
| Cc1ccc(S(=O)(=O)NCc2csc(C)n2)cc1 | inconclusive: 65% |  |
| CC(C)(C)OC(=O)N1CCC[C@@H]1C(=O)N1CCC(C(=O)O)CC1 | inconclusive: -9.39% |  |
| O=C1C2C3CCC(C3)C2C(=O)N1CNc1ccccc1 (centres undefined) |  | inconclusive: 0.411 µM [falling, full curve, poor fit] |
| CC1CCN(CCCNC(=O)CN2C(=O)CSc3ccc(S(=O)(=O)N4CCCCC4)cc32)CC1 | inconclusive: 79.4% |  |
| O=S(=O)(Cc1ccccc1)N1CCC(N2CCN(c3ccccc3)CC2)CC1 |  | inconclusive: 2.59 µM [activator, partial curve, poor fit] |
| O=C(CNC(=O)c1ccccc1F)NCCc1ccc(Cl)cc1 | inconclusive: -96.8% |  |
| COc1cc(OC)nc(NC(=S)NC(=O)c2ccccc2)n1 |  | inconclusive: 3.26 µM [falling, single point] |
| COc1ccccc1NS(=O)(=O)c1ccc(C)c(NC(=O)C2CCCO2)c1 (centres undefined) | inconclusive: 7.44% |  |
| CN1CCN(C(=S)c2cn(Cc3ccccc3)c3ccccc23)CC1 | inconclusive: 4.74% |  |
| CCc1cccc(C)c1NC(=O)C1=C(C(=O)O)CCCC1 | inconclusive: -5.79% |  |
| O=C(NCc1ccccc1C(F)(F)F)C1CC(c2ccccc2C(F)(F)F)=NO1 (centres undefined) | inconclusive: 20.8% |  |
| CCC(CC)c1nnc(NC(=O)C2CC(=O)N(C3CCCC3)C2)s1 (centres undefined) | inconclusive: 42.7% |  |
| CCCCS(=O)(=O)N1CCCC(C(=O)Nc2ccc(Cl)cn2)C1 (centres undefined) | inconclusive: -1.67% |  |
| Cc1ccc2nc(SCn3nnc4ccccc4c3=O)[nH]c2c1 | inconclusive: 8.73% |  |
| C[n+]1ccccc1/C=C/c1ccccc1Cl | inconclusive: 29.3% |  |
| O=C1Nc2cc(C(=O)N3CCc4ccccc4C3)ccc2S/C1=C\c1ccccc1 |  | active: 0.651 µM |
| Cc1cc(C(C)(C)C)cc(C)c1S(=O)(=O)N1CCN(C(=O)c2cc([N+](=O)[O-])c[nH]c2=O)CC1 | inconclusive: -97.9% |  |
| COc1ccc(C(=O)CNc2ccccc2CO)cc1 | inconclusive: 8.32% |  |
| O=C(C(Cl)c1ccccc1)N1CCCC1 (centres undefined) |  | inconclusive: 0.651 µM [activator, single point] |
| CN(C)/C=C1/C(=O)N(c2ccc([N+](=O)[O-])cc2)N=C1c1ccccc1 | inconclusive: 22.9% |  |
| S=C(NCCCN1CCOCC1)NC1CCCC1 | inconclusive: -11.3% |  |
| COc1ccc([C@@H]2C(C#N)=C(N)S[C@@H](c3ccccc3)[C@@H]2[N+](=O)[O-])cc1 | inconclusive: -0.565% |  |
| N#CC1=C2SCN(c3ccccc3)CN2C(=O)CC1c1ccccc1Cl (centres undefined) | inconclusive: -2.18% |  |

Fetched by compound from the entries so far:

| Structure (SMILES) | lipid storage change, negative = inhibition | Potency |
| --- | --- | --- |
| O=C(C(Cl)c1ccccc1)N1CCCC1 (centres undefined) |  | inconclusive: 0.651 µM [activator, single point] |
| Cc1ccc(S(=O)(=O)NCc2csc(C)n2)cc1 | inconclusive: 65% |  |
| CCCCS(=O)(=O)N1CCCC(C(=O)Nc2ccc(Cl)cn2)C1 (centres undefined) | inconclusive: -1.67% |  |
